{"source": "patent US20030044413A1", "about": "“Methods of limiting apoptosis of cells” (Regents of the University of Minnesota, priority 1998, published 2003)", "key": {"HuH-7 cells": {"system": "HuH-7 cells", "test": "DCA-induced apoptosis, Hoechst staining, HuH-7 cells", "type": "cell-based", "text": "Cell culture and preparation of rat primary hepatocytes. Rat primary hepatocytes were isolated from male Sprague-Dawley rats (200-250 g) by collagenase perfusion as described previously (Mariash et al., J. Biol. Chem, 261, 9583-9586 (1986)). Briefly, rats were aneshtesized with phenobarbitol and the livers were perfused with 0.05% collagenase. Hepatocyte suspensions were obained by passing digested livers through 0.125 mm gauze and washing cells in modified Eagles' medium (MEM, Life Technologies, Inc., Grand Island, N.Y.). […] After isolation, hepatocytes were resuspended in William's E medium (Life Technologies, Inc., Grand Island, N.Y.) supplemented with 26 mM sodium bicarbonate, 23 mM HEPES, 0.01 U/ml insulin, 2 mM L-glutamine, 10 nM dexamethasone, 5.5 mM glucose, 100 U/ml penicillin and 100 U/ml streptomycin and then 1.0×10^6 cells were plated on 35×10 mm […] tissue culture dishes (Becton Dickinson Labware, Lincoln Park, N.J.). The cells were maintained at 37° C. in a humidified atmosphere of 5% CO2 for 3 h. Plates were then washed with medium to remove dead cells, and medium containing 10% heat-inactivated FBS (55° C. for 30 min) was added (Atlanta Biologicals, Inc., Norcross, Ga.). Aliquots of 1.0×10^5 human (HuH-7) hepatoma cells were plated on 35×10 mm tissue culture dishes (Becton Dickinson Labware) and maintained at 37° C. in Dulbecco's MEM (Atlanta Biologicals, Inc.) supplemented with 10% FBS, 100 U/ml penicillin and 100 u/ml streptomycin for 3 h prior to incubation with bile acids.\nIncubation of cells with bile acids. […] The medium was gently removed at the indicated time points and scored for nonviable cells by trypan blue dye exclusion. […]\n(§1) Morphological evaluation of apoptosis. […] Fluorescence was visualized with a Zeiss standard fluorescence microscope (Carl Zeiss, Inc., Thornwood, N.Y.). […] Stained nuclei were scored by blind analysis and categorized according to the condensation and staining characteristics of chromatin. […] Three fields per dish of approximately 500 nuclei were counted; mean values are expressed as the percent of apoptotic nuclei."}, "primary rat hepatocytes": {"system": "primary rat hepatocytes", "test": "Ethanol-induced apoptosis, Hoechst staining, primary rat hepatocytes", "type": "cell-based", "conditions": "coincubation with 0.5% ethanol", "experimental": "Incubation of cells with ethanol, TGF-β1, anti-Fas antibody or okadaic acid. Freshly isolated rat hepatocytes were cultured for 3 h as described above and then incubated with William's E medium supplemented with either 0.5% ethanol, 50 μM UDCA, ethanol plus UDCA, or no addition (control) for 2 h and 4 h. HuH-7 cells were incubated with Dulbecco's medium supplemented with either 1 nM TGF-β1 (R & D Systems, Minneapolis, Minn.), 100 μM UDCA, TGF-β1+UDCA, or no addition (control) for 24 h, 48 h, and 72 h. Hep G2 cells were incubated with Dulbecco's medium supplemented with either 0.5 μg/ml of anti-Fas antibody CH-11 (Upstate Biotechnology, Inc., Lake Placid, N.Y.), 100 μM UDCA, CH-11+UDCA, or no addition for 48 h. Both HuH-7 cells and human osteogenic sarcoma Saos-2 cells were cultured in Dulbecco's medium supplemented with either 50 nM okadaic acid (Boehringer Mannheim Biochemicals, Inc, Indianapolis, Ind.), 100 μM UDCA, okadaic acid+UDCA, or no addition for 48 h. […]\nas §1"}, "[1]": {"system": "calcein-loaded isolated rat liver mitochondria", "test": "MPT fluorimetric assay (calcein release)", "conditions": "200 μM DCA", "experimental": "The fluorimetric assay was performed after loading the mitochondria with 10 μM calcein-acetoxymethyl ester (AM) (Molecular Probes Inc., Eugene, Oreg.) for 30 min at 37° C. in chelex-100 treated resuspension buffer before purification by sucrose-percoll gradient centrifugation (Botla et al., J. Pharmacol. Exp. Ther., 272, 930-938 (1995)). The assays were performed using calcein-loaded isolated mitochondria (1 mg protein/ml) in chelex-100-treated respiration buffer at 37° C. For the coincubation assays, the samples were preincubated for 10 min with 500 μM UDCA prior to addition of 200 μM DCA. The fluorescence of calcein was monitored by excitation and emission wavelengths of 490 nm and 515 nm, respectively, using a Perkin-Elmer luminescence spectrometer model LS-5B (Perkin-Elmer Ltd., Buckinghamshire, England)."}, "Bcl-2": {"system": "Bcl-2", "test": "Western blot, liver of bile acid fed rats: Bcl-2", "type": "in vivo, rat", "conditions": "bile acid feeding"}}, "note": "At least one compound was matched to its structure with a doubt left.", "data": [{"compound": "C[C@H](CCC(=O)O)[C@H]1CC[C@H]2[C@@H]3CC[C@@H]4C[C@H](O)CC[C@]4(C)[C@H]3C[C@H](O)[C@]12C", "note": "[DCA, deoxycholic acid]", "values": [{"measurement": "nuclear morphology", "setting": "HuH-7 cells; 50 μM DCA, 6 h", "value": "retained their characteristic nuclear morphology"}, {"measurement": "induction of apoptosis", "setting": "HuH-7 cells; DCA at 100 μM", "value": "significant apoptosis"}, {"measurement": "effect on ethanol-induced apoptosis", "setting": "primary rat hepatocytes", "value": "no inhibitory effect was detected"}, {"measurement": "calcein fluorescence (mitochondrial leakage)", "setting": "[1]", "value": "significant unquenching of calcein fluorescence"}, {"measurement": "abundance of Bcl-2 in mitochondria", "setting": "Bcl-2", "value": "significantly increased the abundance of Bcl-2"}]}]}
